Reference: paper PMC3428324
Results are given in words; binding and its absence hold for the method and conditions named. In cells and extracts the contact can be indirect. Here binding means that the protein was enriched with, or labelled near, the bait; the list need not be complete. Each block holds one molecule with its values, some of them ahead of it.

Amino acid sequences for entries named in this document (tags omitted).
UniProt P43249: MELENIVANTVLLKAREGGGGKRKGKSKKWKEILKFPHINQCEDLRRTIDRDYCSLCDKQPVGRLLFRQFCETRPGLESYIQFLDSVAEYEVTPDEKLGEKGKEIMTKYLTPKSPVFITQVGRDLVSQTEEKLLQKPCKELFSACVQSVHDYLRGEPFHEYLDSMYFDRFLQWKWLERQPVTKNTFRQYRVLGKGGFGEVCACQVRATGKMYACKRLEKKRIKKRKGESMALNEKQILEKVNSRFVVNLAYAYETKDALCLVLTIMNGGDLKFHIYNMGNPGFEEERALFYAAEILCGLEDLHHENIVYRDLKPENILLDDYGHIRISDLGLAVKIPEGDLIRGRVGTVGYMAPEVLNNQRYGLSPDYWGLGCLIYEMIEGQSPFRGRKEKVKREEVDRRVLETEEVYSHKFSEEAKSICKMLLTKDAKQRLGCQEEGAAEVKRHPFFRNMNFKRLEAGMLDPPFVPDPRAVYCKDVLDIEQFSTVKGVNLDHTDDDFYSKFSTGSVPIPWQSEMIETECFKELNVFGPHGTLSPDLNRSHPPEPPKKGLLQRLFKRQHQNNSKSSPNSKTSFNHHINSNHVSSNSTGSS
UniProt P35579: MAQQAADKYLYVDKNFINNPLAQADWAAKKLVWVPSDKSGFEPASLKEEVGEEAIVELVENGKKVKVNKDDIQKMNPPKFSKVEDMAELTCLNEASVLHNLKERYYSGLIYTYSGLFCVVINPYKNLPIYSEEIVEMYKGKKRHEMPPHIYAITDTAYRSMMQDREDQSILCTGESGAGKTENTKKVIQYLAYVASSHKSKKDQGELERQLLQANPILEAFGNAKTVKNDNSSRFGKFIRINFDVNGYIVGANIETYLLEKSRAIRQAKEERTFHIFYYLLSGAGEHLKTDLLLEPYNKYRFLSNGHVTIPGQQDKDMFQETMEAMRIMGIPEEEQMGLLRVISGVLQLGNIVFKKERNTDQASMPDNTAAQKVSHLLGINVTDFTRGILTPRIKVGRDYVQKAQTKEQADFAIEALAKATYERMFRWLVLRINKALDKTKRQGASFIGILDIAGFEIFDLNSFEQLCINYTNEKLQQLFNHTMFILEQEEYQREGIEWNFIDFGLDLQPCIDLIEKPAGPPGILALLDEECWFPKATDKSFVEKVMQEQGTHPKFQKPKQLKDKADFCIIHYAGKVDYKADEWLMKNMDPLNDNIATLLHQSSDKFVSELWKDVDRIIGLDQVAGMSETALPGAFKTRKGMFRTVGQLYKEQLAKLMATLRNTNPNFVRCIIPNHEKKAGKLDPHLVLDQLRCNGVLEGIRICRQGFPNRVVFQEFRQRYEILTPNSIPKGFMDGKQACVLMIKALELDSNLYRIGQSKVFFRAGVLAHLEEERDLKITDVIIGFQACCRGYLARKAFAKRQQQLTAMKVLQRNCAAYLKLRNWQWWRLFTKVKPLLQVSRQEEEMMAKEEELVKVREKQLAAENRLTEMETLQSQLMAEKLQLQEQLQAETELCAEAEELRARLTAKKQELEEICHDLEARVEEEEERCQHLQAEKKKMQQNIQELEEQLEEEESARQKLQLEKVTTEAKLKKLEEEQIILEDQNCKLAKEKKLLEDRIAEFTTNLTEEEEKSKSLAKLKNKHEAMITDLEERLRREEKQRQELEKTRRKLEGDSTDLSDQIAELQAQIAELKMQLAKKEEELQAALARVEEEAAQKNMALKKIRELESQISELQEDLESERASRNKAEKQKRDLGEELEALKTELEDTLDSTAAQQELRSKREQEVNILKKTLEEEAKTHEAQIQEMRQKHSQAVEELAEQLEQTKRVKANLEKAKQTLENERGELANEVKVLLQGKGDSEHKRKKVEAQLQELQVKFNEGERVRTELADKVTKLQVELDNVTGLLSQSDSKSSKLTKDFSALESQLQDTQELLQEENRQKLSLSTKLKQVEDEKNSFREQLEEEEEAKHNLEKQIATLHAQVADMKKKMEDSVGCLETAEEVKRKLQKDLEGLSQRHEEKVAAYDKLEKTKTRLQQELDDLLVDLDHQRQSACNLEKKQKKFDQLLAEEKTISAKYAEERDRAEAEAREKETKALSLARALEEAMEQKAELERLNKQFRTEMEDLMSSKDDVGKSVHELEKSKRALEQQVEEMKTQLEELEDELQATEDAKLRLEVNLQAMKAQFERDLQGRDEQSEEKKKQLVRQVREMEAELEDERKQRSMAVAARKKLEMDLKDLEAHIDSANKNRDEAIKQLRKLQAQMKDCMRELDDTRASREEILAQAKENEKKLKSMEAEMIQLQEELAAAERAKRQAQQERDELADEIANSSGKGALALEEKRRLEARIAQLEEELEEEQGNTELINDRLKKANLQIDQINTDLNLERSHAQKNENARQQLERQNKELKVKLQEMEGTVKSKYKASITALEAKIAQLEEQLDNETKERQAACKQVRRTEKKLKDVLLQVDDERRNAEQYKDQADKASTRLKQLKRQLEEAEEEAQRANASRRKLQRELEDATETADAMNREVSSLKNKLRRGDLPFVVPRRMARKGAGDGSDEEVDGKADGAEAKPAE
UniProt P08238: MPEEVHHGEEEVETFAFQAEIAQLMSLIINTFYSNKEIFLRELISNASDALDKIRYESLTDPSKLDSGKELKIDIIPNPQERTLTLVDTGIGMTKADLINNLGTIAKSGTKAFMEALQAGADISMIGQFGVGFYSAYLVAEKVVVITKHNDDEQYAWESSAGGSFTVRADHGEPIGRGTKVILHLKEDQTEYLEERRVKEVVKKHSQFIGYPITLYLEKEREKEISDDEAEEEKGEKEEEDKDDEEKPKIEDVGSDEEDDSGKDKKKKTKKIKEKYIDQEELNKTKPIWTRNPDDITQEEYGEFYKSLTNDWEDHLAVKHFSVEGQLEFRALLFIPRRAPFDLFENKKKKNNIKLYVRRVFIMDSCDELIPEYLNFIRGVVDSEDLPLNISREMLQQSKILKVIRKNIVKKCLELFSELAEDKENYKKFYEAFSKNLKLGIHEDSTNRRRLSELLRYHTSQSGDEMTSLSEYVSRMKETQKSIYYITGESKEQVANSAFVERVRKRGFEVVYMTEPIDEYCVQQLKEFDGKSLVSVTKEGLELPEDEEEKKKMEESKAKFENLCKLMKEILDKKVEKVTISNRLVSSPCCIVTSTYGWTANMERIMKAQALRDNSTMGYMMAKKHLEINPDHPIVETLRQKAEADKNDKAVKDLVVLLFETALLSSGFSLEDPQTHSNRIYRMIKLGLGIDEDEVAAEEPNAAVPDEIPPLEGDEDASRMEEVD
UniProt Q9BQ67: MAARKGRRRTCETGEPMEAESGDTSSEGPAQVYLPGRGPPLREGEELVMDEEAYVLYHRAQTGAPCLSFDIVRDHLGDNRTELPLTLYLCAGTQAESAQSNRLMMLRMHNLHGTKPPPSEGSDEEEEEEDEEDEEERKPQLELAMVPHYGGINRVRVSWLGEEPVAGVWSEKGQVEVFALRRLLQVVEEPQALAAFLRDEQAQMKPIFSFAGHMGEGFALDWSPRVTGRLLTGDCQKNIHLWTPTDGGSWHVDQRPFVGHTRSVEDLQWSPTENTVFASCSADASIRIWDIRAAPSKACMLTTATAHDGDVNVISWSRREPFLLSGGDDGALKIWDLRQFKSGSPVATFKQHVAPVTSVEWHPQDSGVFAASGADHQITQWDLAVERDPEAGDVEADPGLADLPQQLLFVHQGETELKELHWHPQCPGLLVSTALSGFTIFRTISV
UniProt Q9UQ35: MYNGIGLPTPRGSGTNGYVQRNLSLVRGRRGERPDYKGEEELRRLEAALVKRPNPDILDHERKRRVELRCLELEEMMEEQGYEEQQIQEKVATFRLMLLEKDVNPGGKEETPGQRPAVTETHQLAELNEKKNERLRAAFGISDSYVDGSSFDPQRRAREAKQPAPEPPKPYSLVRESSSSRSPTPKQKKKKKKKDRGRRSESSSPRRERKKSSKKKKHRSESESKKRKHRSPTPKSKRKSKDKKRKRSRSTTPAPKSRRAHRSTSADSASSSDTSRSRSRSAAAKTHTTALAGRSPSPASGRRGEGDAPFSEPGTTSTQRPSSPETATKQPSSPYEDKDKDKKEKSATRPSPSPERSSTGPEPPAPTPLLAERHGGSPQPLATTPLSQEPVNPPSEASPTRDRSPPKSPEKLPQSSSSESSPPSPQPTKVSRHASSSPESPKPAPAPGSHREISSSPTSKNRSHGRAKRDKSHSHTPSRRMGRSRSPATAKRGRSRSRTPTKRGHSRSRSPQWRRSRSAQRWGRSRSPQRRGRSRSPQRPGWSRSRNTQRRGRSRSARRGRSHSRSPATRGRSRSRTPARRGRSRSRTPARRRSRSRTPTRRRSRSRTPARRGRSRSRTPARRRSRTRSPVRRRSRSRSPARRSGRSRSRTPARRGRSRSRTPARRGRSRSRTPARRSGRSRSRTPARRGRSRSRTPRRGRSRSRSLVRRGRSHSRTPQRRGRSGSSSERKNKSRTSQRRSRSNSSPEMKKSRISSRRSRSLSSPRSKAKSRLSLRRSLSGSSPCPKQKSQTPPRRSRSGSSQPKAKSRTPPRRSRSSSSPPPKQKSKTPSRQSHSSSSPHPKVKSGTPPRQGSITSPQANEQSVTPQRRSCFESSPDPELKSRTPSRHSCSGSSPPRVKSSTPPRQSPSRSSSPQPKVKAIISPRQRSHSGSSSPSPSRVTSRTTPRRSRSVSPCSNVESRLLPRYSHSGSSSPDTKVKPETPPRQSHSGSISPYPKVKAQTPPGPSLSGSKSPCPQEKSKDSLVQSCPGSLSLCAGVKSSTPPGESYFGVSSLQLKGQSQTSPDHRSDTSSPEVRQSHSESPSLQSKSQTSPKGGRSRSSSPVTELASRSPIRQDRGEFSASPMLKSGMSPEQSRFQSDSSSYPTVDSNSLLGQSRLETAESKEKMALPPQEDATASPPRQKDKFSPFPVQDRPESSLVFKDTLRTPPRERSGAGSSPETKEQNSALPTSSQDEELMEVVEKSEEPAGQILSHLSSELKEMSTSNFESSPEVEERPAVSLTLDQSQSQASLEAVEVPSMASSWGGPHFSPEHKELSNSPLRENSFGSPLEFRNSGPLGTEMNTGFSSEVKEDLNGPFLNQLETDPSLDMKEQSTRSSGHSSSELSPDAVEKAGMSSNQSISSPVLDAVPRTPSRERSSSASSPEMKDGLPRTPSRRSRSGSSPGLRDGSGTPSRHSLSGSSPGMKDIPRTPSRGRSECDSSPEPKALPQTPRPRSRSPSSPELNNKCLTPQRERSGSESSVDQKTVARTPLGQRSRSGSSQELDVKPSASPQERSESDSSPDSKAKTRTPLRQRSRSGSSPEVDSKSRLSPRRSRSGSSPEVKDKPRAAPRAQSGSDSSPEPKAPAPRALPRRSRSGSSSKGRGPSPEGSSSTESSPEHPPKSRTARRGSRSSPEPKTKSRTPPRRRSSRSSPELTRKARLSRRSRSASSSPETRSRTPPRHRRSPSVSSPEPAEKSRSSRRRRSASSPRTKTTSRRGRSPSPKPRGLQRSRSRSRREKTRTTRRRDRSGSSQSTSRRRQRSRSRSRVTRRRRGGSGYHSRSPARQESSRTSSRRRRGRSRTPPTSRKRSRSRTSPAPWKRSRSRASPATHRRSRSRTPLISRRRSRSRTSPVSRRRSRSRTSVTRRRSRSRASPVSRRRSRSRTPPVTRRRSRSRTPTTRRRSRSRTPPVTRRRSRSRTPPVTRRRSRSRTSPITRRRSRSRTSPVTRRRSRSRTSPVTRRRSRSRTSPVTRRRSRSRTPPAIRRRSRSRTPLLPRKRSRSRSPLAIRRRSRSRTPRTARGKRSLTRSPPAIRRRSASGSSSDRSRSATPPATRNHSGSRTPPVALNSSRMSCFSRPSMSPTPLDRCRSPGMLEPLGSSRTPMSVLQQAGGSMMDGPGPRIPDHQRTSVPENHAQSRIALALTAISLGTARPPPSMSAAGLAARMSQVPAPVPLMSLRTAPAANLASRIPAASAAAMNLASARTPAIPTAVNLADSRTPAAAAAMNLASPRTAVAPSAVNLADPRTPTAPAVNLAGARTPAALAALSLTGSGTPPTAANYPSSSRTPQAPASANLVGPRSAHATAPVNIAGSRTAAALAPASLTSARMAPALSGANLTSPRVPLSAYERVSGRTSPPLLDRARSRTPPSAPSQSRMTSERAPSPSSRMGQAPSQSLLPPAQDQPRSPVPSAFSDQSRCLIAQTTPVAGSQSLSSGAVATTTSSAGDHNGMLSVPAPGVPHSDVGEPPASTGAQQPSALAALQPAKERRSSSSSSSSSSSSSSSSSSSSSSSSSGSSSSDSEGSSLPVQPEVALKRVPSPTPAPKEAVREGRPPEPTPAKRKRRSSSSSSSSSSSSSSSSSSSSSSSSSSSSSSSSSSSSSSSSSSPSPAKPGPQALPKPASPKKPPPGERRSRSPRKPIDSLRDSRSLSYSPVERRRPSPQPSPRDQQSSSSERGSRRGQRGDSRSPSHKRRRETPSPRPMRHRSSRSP

What was measured:
[1] = target: GRK5-Flag (Flag-tagged G protein-coupled receptor kinase 5) (bovine) (UniProt P43249); assay: affinity purification with mass spectrometry; lysate of HUVEC cells transiently expressing GRK5-Flag (GFP cells as control); IP buffer; anti-FLAG M2 affinity gel, 4°C, 8 h; excised gel bands analysed by LC-MS/MS
[2] = target: GRK5-Flag (Flag-tagged G protein-coupled receptor kinase 5) (bovine) (UniProt P43249); assay: affinity purification with mass spectrometry; lysate of MDA-MB-231 cells stably expressing GRK5-Flag (GFP cells as control); IP buffer (50 mM Tris.HCl pH 7.5, 150 mM NaCl, 0.5% NP-40, 10% glycerol, 1 mM EDTA); anti-FLAG M2 affinity gel, 4°C, 8 h; excised gel bands analysed by LC-MS/MS

Molecule: heat shock protein Hsp90-alpha (Hsp90AA1) (from UniProt P07900 1-732)
binding [2]: binds

Molecule: CUL4B, endogenous (from UniProt Q13620 1-913)
binding [1]: binds
binding [2]: binds

Molecule: Myosin-9 (MYH9) (from UniProt P35579 1-1960)
binding [2]: binds

Molecule: WDR82 (from UniProt Q6UXN9 1-313)
binding [1]: binds

Molecule: heat shock protein Hsp90-beta (Hsp90AB1) (from UniProt P08238 1-724)
binding [2]: binds

Molecule: glutamate-rich WD40-repeat protein 1 (GRWD1) (from UniProt Q9BQ67 1-446)
binding [1]: binds
binding [2]: binds

Molecule: serine/arginine repetitive matrix 2 (SRRM2) (from UniProt Q9UQ35 1-2752)
binding [1]: binds
binding [2]: binds

Continued, values first:

binding [1]: binds
binding [2]: binds
Molecule: damaged DNA-binding protein 1 (DDB1), endogenous (from UniProt Q16531 1-1140)

binding [1]: binds
binding [2]: binds
Molecule: WD40-repeat protein 22 (WDR22) (from UniProt Q96JK2 1-942)

binding [1]: binds
binding [2]: binds
B1: AP-3 complex subunit delta 1 (AP3D1) (protein, UniProt O14617 1-1153)
chain: MALKMVKGSIDRMFDKNLQDLVRGIRNHKEDEAKYISQCIDEIKQELKQDNIAVKANAVCKLTYLQMLGYDISWAAFNIIEVMSASKFTFKRIGYLAASQSFHEGTDVIMLTTNQIRKDLSSPSQYDTGVALTGLSCFVTPDLARDLANDIMTLMSHTKPYIRKKAVLIMYKVFLKYPESLRPAFPRLKEKLEDPDPGVQSAAVNVICELARRNPKNYLSLAPLFFKLMTSSTNNWVLIKIIKLFGALTPLEPRLGKKLIEPLTNLIHSTSAMSLLYECVNTVIAVLISLSSGMPNHSASIQLCVQKLRILIEDSDQNLKYLGLLAMSKILKTHPKSVQSHKDLILQCLDDKDESIRLRALDLLYGMVSKKNLMEIVKKLMTHVDKAEGTTYRDELLTKIIDICSQSNYQYITNFEWYISILVELTRLEGTRHGHLIAAQMLDVAIRVKAIRKFAVSQMSALLDSAHLLASSTQRNGICEVLYAAAWICGEFSEHLQEPHHTLEAMLRPRVTTLPGHIQAVYVQNVVKLYASILQQKEQAGEAEGAQAVTQLMVDRLPQFVQSADLEVQERASCILQLVKHIQKLQAKDVPVAEEVSALFAGELNPVAPKAQKKVPVPEGLDLDAWINEPLSDSESEDERPRAVFHEEEQRRPKHRPSEADEEELARRREARKQEQANNPFYIKSSPSPQKRYQDTPGVEHIPVVQIDLSVPLKVPGLPMSDQYVKLEEERRHRQKLEKDKRRKKRKEKEKKGKRRHSSLPTESDEDIAPAQQVDIVTEEMPENALPSDEDDKDPNDPYRALDIDLDKPLADSEKLPIQKHRNTETSKSPEKDVPMVEKKSKKPKKKEKKHKEKERDKEKKKEKEKKKSPKPKKKKHRKEKEERTKGKKKSKKQPPGSEEAAGEPVQNGAPEEEQLPPESSYSLLAENSYVKMTCDIRGSLQEDSQVTVAIVLENRSSSILKGMELSVLDSLNARMARPQGSSVHDGVPVPFQLPPGVSNEAQYVFTIQSIVMAQKLKGTLSFIAKNDEGATHEKLDFRLHFSCSSYLITTPCYSDAFAKLLESGDLSMSSIKVDGIRMSFQNLLAKICFHHHFSVVERVDSCASMYSRSIQGHHVCLLVKKGENSVSVDGKCSDSTLLSNLLEEMKATLAKC

binding [1]: binds
binding [2]: binds
B2: COP9 signalosome complex subunit 7a (COPS7A) (protein, UniProt Q9UBW8 1-275)
chain: MSAEVKVTGQNQEQFLLLAKSAKGAALATLIHQVLEAPGVYVFGELLDMPNVRELAESDFASTFRLLTVFAYGTYADYLAEARNLPPLTEAQKNKLRHLSVVTLAAKVKCIPYAVLLEALALRNVRQLEDLVIEAVYADVLRGSLDQRNQRLEVDYSIGRDIQRQDLSAIARTLQEWCVGCEVVLSGIEEQVSRANQHKEQQLGLKQQIESEVANLKKTIKVTTAAAAAATSQDPEQHLTELREPAPGTNQRQPSKKASKGKGLRGSAKIWSKSN
